# Measured values published in publication PMC9981704, “PARP1 allows proper telomere replication through TRF1 poly (ADP-ribosyl)ation and helicase recruitment”.
# Sequences of proteins named here, by UniProt entry; tags and fusion partners are left off. A change or cut given only in a name is not applied to a line headed by its entry.
# UniProt P54274: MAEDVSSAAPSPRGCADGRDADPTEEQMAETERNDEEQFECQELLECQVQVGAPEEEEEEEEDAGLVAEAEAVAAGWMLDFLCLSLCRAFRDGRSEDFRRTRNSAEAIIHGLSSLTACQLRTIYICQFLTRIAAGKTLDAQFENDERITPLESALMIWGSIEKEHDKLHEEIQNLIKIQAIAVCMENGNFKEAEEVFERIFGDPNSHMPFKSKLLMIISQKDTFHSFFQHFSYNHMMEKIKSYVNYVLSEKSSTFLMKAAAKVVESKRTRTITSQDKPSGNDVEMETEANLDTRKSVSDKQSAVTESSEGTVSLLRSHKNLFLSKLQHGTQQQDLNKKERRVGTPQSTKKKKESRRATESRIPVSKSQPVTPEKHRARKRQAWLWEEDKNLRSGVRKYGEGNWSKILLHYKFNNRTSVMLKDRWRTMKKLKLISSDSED
# Construct, isoform or probe ends are uncertain for at least one entry. A weaker result is weaker than the reference pair of the same experiment.
# Biological target: TRF1 PARylated by PARP1 (human) (UniProt P54274)
# Test: EMSA
# Conditions: TRF1 pre-PARylated by PARP1, binding massively reduced; 20 mM Hepes pH 7.9, 100 mM NaCl, 50 mM KCl, 1 mM MgCl2, 0.1 mM EDTA, 1 mM DTT, 5% glycerol, 0.5 mg/ml BSA, 0.1% NP-40; 4 °C, 90 min; native 4.5% PAGE; recombinant protein; residues 1-439; protein details: His (pTrc-HisB); label: 32P 5' end label (T4 PNK)
sequence,measurement,value
GGGTTAGGGTTAGGGTTAGGGTTAGGGTTAGGGTTAGGGTTAGGGCCCCTC (double strand) [telomeric duplex DNA],binding result,binds more weakly
